Binding data for one molecule are collected here from US20210122818A1 (BIOUNIVERSA S R L, published 2021).

By UniProt entry, the sequences of proteins in these tests, tags left out. Residues count along the entry.
UniProt O95817, residues 2-575: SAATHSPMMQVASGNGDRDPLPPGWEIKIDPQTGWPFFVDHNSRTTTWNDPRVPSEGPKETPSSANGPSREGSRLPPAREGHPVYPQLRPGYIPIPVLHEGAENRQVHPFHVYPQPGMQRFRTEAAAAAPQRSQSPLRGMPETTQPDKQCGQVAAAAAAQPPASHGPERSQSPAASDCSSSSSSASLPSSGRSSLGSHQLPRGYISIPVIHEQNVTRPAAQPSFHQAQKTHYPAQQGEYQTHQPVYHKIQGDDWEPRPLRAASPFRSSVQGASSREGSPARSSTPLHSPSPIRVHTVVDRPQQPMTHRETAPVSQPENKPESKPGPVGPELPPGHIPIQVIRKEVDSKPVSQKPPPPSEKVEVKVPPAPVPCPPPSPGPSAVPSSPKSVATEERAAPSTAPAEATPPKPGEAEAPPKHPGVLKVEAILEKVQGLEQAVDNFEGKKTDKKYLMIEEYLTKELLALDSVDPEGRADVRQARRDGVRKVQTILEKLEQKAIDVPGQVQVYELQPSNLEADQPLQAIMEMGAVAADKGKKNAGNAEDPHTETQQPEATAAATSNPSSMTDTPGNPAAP

This assay has as its target T1, recombinant BAG3 full-length protein (UniProt O95817 2-575, limits assumed).
T1 construct: mature; also called rBAG3; E. Coli rBAG3
The assay can be described thus: blocking assay, flow cytometry: FITC-rBAG3 (40 µg/ml) binding to the surface of J774 A.1 macrophages with antibody at 3200 µg/ml.

Results are given in words; binding and its absence hold for the method and conditions named. Some results given as binding are weak or reduced against the parent protein; the word gives no strength.

B1: AC-2 murine antibody (antibody, V domains shown)
VH: EVQLQQSGAELVKPGASVKLSCTASGFNIKDTYMYWVKQRPEQGLEWIGGVDPANGNTRYDPKFQGKATLTADTSSSTAYLQLSSLTSEDTAVYYCGRDGAMDYWGQGTSVTVSS
VL: DIVMSQSPSSLAVSVGEKVTMSCKSSQSLLYSSNQKNYLAWHQQKPGQSPKLLIYWASTRESGVPDRFTGSGSGTDFTLTISSVKAEDLAIYYCQQYYTYPLTFGAGTKLELK
notes: Murine hybridoma antibody; also called anti-BAG3 mouse antibody (AC2); murine anti-BAG AC-2 antibody
Turning to B1, the binding entry was “binds”.
